## Library screening results

From ChEMBL document CHEMBL3988442, “University of Dundee, Small-Polar-MMV Screening Library” (2021).

Results are given as percent effect.
The controls that fix the scale are not given in the record; negative values are as filed.
This is an unselected part of the compounds tested.
Two or more numbers in one place are separate tests of the same structure; such repeats can differ widely.

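Viability assay of Plasmodium falciparum sporozoites; the read-out is not stated. The concentration is filed as 10 mM, unlikely as a test dose, so the dose is not known. Higher reads as lower viability (inferred: compounds with an IC50 in retests scored well above the rest). Strong results were mostly tested again. Size under these conditions: about 34,000 compounds, about 280 of them at 50% or above in at least one test.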

With CN(C)C(=O)C1CCCN1CCCNC(=O)c1ccccc1F (stereo not given) the screen gave -7.91%. With [H][C@]12CC[C@@]3(N=C(C)N(CCOC)C3=O)[C@@]1([H])CN(C(=O)NCC(C)C)C2 the screen gave -12.45%. Result for OCC1CCCN1c1cc(NCCc2ccsc2)ncn1 (stereo not given) was 86.32% and 73.55%. Result for [H][C@@]12CS(=O)(=O)C[C@]1([H])N(C(=O)CCn1cc(Cl)cn1)CCN2C(=O)CC was -13.08%. For CC(C)c1noc(C(C)N2CCN(CCN3CCCC3=O)CC2)n1 (stereo not given) the result was -0.64%. With CC(C)n1cc(-c2c(C#N)c(N)nc3c2COCC3)cn1 the screen gave -2.473%. c1ccc(Cc2noc(CN3CCCCC3Cn3cncn3)n2)cc1 (stereo not given) read 12.15%.

For Cc1cc(C)cc(-c2cc(C3CCOC3)c(C#N)c(N)n2)c1 (stereo not given) the result was -22.01% and -22.76% and 12.24%. For [H][C@]12CCN(c3ncccc3Cl)C[C@]1(COC)CC[C@@H](N1CCOCC1)C2 the result was -18.19%. Result for COc1cccc(C(=O)NCCCN2CCc3ccccc3C2)c1OC was -18.87%. With [H][C@]12CCN(c3ccccc3)C[C@@]1([H])OCCN(C(=O)c1ccco1)C2 the screen gave 9.708%. Result for [H][C@]12CCC[C@@H](CN3CCCC3)[C@@]1([H])CN(c1cc(OC)ncn1)C2 was -1.07%. With N#Cc1c(C2CC2)cc(-c2ccc(F)c(F)c2)nc1N the screen gave 0.08651%. With Cc1cnc(-c2nc(NC3CC3)ncc2-c2cc(C)no2)cn1 the screen gave 18.85%.

For N#Cc1cccc(NS(=O)(=O)c2ccc(C(=O)O)cc2F)c1 the result was -7.293%. c1ccc(OCc2ccncc2)c(CNC2CCc3ncnn3C2)c1 (stereo not given) read 13.85%. Result for Cc1nn(C)c(N2CCOCC2)c1CNC(C)c1cccs1 (stereo not given) was 1.346%. With O=c1[nH]c(CN2CCOC(Cn3cccn3)C2)nc2ccccc12 (stereo not given) the screen gave 17.73%. Result for Cc1nc(CN2CCC3(CC2)NC(=O)CC3c2cccnc2)cs1 (stereo not given) was -8.123%. CSCCC(O)C(=O)N1CCCN(Cc2ccc(F)cc2)CC1 (stereo not given) gave 0.223%. Cc1ccc(N2CCCC(NCc3ccc(C)s3)C2)nn1 (stereo not given) read 15.01%.

For OC(CNCCn1cccn1)c1cccc(F)c1 (stereo not given) the result was 6.967%. Cc1cc(C2CCCN2Cc2nc3c(cnn3C)c(=O)[nH]2)on1 (stereo not given) read 7.202%. Result for CC(Cn1ccnc1)NC(=O)NCc1ccccn1 (stereo not given) was 2.22%. O=C(CCCn1cncn1)N1CCC2(CCCNC2=O)C1 (stereo not given) read -14%. Cc1ccnc(NCCNC(=O)C2CC3(CCNCC3)CN2C)c1 (stereo not given) gave -4.236%. Cc1cnccc1-c1cnn(CCNC(=O)c2cccnc2)c1C1CC1.Cl read 23.35%. For COC(=O)C(c1cc(F)ccc1F)N(C)C(=O)c1cccnc1O (stereo not given) the result was -5.251%.

For COc1cccc2c1ccn2CC(=O)N[C@@H](CCSC)C(=O)O the result was 0%. For O=C(C1CC=CC1)N1CCCn2nnc(CNc3ncccn3)c2C1 the result was 8.492%. Result for CC(C)Cn1nnnc1SC(C(=O)NCc1cccnc1)C(C)C (stereo not given) was 1.171%. For CN(C)C(=O)N1CCC2(CCCN(CCOc3ccccc3)C2)C1.O=C(O)C(F)(F)F (stereo not given) the result was -15.34%. Result for CC(C(=O)Nc1ccc(C#N)cc1)N1CCc2ccccc21 (stereo not given) was 10.55% and 17.74%. Result for Cc1ncc(CN2CCOC(c3ccc(-c4cc[nH]n4)cn3)C2)s1 (stereo not given) was 13.83%. For CCn1cnnc1C1CCN(C(=O)COc2ccccc2OC)CC1 the result was -6.632% and 0.3195% and -11.17%.

For O=C1OCCN1CCNCC1(O)CCCN(CCC2CCCCC2)C1=O (stereo not given) the result was -8.509%. With COc1ccccc1OC1(C(=O)O)CCN(c2nccnc2C)CC1 the screen gave -1.403%. [H][C@@]12CCN(S(=O)(=O)c3ccccc3)C[C@]1(C(=O)NC)CCO2 read 0.9549%. Cc1ccc2nc(CSCC(=O)Nc3nnc(C(C)C)s3)cc(=O)n2c1 read 0.8057%. With COC(=O)c1ccc(N2CCN(C(=O)c3ccco3)C(C)C2)cc1 (stereo not given) the screen gave -4.065%. O=C1CC(N(C(=O)c2ccc3[nH]c4c(c3c2)CCCC4)C2CC2)C(=O)N1 (stereo not given) read 16.37%. For Cc1ccc(OCCCC(=O)NC(C)c2nnc3n2CCC3)cc1 (stereo not given) the result was -3.992%.

For O=C(CN1CCC(c2cccc(F)c2)C1)NCC(F)(F)F (stereo not given) the result was 9.563%. CCn1cc(NC(=O)C2CCN(Cc3noc(C4CC4)n3)CC2)cn1 read 13%. O=C(O)C(F)(F)F.[H][C@@]12CCN(Cc3ccco3)[C@@]1([H])CCC(=O)N2 read -0.7881%. For c1cnnc(N2CCCC2CNCc2cccs2)c1 (stereo not given) the result was 6.28%. Fc1ccc(-c2nc(CNCCn3cccn3)cs2)cc1 gave -30.81% and 2.814% and -32.68%. Cc1cccn2c(CC(=O)N3CCC(Oc4ncccn4)CC3)cnc12 gave -18.73% and -27.84%. For O=C(O)C(F)(F)F.[H][C@@]12COC[C@@H](C(=O)N3CCCCO3)[C@]1([H])CN(Cc1cc(C)on1)C2 the result was 6.1% and -26.78% and -37.32%.

Cc1cc(C(F)(F)F)nc(CNc2cc(C)nc3cc(C)nn23)n1 gave -20.15%. Result for CN(c1nc(Cn2cc(Br)ccc2=O)cs1)C1CC1 was 4.053%. Fc1cccc(N2CCCC3(CN(Cc4ccncc4)CCO3)C2)c1.O=C(O)C(F)(F)F.O=C(O)C(F)(F)F.O=C(O)C(F)(F)F (stereo not given) gave -10.73%. Result for CC(C(=O)NCCN1CCCCCC1)n1cncn1 (stereo not given) was -4.482%. For COc1ccc(C(=O)N(C)Cc2nnc3ccccn23)cc1 the result was 2.959%. Cc1nc(CNC(=O)N2CCN(c3ccc(Cl)cn3)CC2)sc1C gave 6.649%.

The first 3 entries again:

* CN(C)C(=O)C1CCCN1CCCNC(=O)c1ccccc1F (stereo not given) | -7.91%
* [H][C@]12CC[C@@]3(N=C(C)N(CCOC)C3=O)[C@@]1([H])CN(C(=O)NCC(C)C)C2 | -12.45%
* OCC1CCCN1c1cc(NCCc2ccsc2)ncn1 (stereo not given) | 86.32% and 73.55%